# Library screening results

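Viability assay of Plasmodium falciparum sporozoites; the read-out is not stated. The concentration is filed as 10 mM, unlikely as a test dose, so the dose is not known. The record gives no direction; compounds that gave an IC50 in retests scored well above the rest, so higher reads as lower viability. Strong results were mostly tested again. About 34,000 compounds were tested under these conditions; 0.84% (about 280) showed 50% or more at least once.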

Values are the deposited “Percent Effect”, in %. How 0% and 100% were set is not recorded. Most values in the screen are low, and negative values occur. This is an unselected part of the compounds tested. Two or more numbers in one place are separate tests of the same structure; such repeats can differ widely.

structure | Percent Effect
COc1ccc(Cl)cc1C(=O)N1CCCC(n2nc(C)nc2C)C1 (stereo unspecified) | 2.549
CCc1nc(CN2CCN(C(=O)N3CCCCC3)CC2)cs1 | 6.654
c1ccc(CCN2CCOC(CNc3cccnn3)C2)nc1 (stereo unspecified) | 10.47
Cn1cccc1C(=O)N1CCCCC1c1ccn2ccnc2n1 (stereo unspecified) | 10.69
CN1CCC(N2CCOC[C@H]2c2nc(C(C)(C)C)c[nH]2)CC1 | 11.51 & 13.7
Cn1ccnc1CN1CCOC(C)(C(=O)N2CCOCC2)C1 (stereo unspecified) | 7.195
COc1cccc(Cn2ncnc2COC(C)C)c1 | -14.52 & -23.3
COc1cc(F)ccc1-c1ncccc1NC(=O)C(C)C | -13.38
CCn1ccnc1CN1CCN(CCC(=O)NC2CCCCC2)CC1 | 4.767
CCCc1ccc(C(=O)N2CCn3c(nnc3C(C)C)C2)cc1 | 0.8919
O=C1CN(C(=O)c2ccc(F)cc2)CC(O)CN1Cc1cccs1 (stereo unspecified) | 17.98
CC(=O)N1CCOC(c2cncc(CCC(N)=O)n2)C1 (stereo unspecified) | -1.279
CC(=O)N1N=C(c2ccccc2)OC1C(=O)N(C)CCc1ccccc1 (stereo unspecified) | 1.104
CC(C)(N)C(=O)N1CCCC1c1cncc(Oc2ccccc2)n1 (stereo unspecified) | -4.197
CC(C)n1ccnc1CN1CCCN(C(=O)CN(C)C2CC2)CC1 | 1.211
COCCN1CCCn2c(nc(CNS(C)(=O)=O)cc2=O)C1.O=C(O)C(F)(F)F | -1.688
Cc1nnc2n1CCN(CCS(=O)(=O)c1ccccc1)C2 | -2.126
O=C(O)C(F)(F)F.O=C(O)C(F)(F)F.O=C(O)C(F)(F)F.[H][C@@]12CN(Cc3ccc(OC)cc3)C[C@]1([H])OCCN2CCN(C)C | -0.3567
O=C(NCCN1CCCC(CO)C1)c1ccc2scnc2c1 (stereo unspecified) | -14.03
c1cc(CN2CCC(CCn3cccn3)CC2)cc(Cn2cccn2)c1 | 4.474
Cn1ncc2c(=O)[nH]c(CN3CCCC3Cc3ccccc3)nc21 (stereo unspecified) | 13.28
O=C(O)c1cc(S(=O)(=O)Nc2ccc(F)cc2F)cc2c1OCCO2 | -9.841
COCC1COCCC12CCN(S(=O)(=O)c1ccccc1C)CC2 (stereo unspecified) | 8.305
O=C(CN1CCOCC1)N1CCC(c2cc(N3CCCC3)ncn2)CC1 | -4.561
O=C(O)C(F)(F)F.O=C(O)C(F)(F)F.[H][C@@]12C[C@H](C)O[C@@]1([H])CCN(Cc1ccccn1)C2 | -17.72
COCCc1noc(CN(C)C2CCCN(c3cccnn3)C2)n1 (stereo unspecified) | 18.49
CC(=O)N1CCCC1c1cccc(Oc2ccccc2F)n1 (stereo unspecified) | 10.33
CN(C)Cc1nn(C)c2c1CCN(C(=O)c1cccnc1)C2 | 11.37
CCN(CC1CCOC1)C(=O)Nc1ccc(-n2cncn2)nc1 (stereo unspecified) | 10.47
O=C(NCCc1ccc(I)s1)N1CCC1 | -0.3365
[H][C@]12CC[C@]([H])(CN(C(=O)c3cnccn3)C1)N(C(=O)Cc1ccsc1)C2 | 9.378
CC(=O)N1CCC(c2nnc3ccc(C(=O)NCC(C)C)cn23)C1 (stereo unspecified) | -5.366
Cn1cccc1-c1cc(C(=O)N2CCCC2C(F)(F)F)[nH]n1 (stereo unspecified) | -10.69
Cl.O=C(c1cccc(F)c1)N1CCCC1c1ncc2c(n1)CCNC2 (stereo unspecified) | 11.38
Cn1ccnc1CN1CCN(CCOc2cccc(C#N)c2)CC1 | 8.739
CCC1c2ccsc2CCN1C(=O)NCCc1ccccn1 (stereo unspecified) | 4.396
Cc1cnn(CCNCC(O)COc2ccc(C#N)cc2)c1 (stereo unspecified) | 12.42
COC[C@H]1CCC[C@]12CN(CCc1ccccc1)CCO2.O=C(O)C(F)(F)F | 4.605
CC(C)N(CC(N)=O)Cc1c(Cl)ccc2cccnc12 | -0.7684
CCc1nnc2n1CCN(C(C(=O)NC1CC1)c1ccccc1)C2 (stereo unspecified) | 6.219
O=C(O)C(F)(F)F.[H][C@@]12CCCO[C@]1([H])[C@H](NS(C)(=O)=O)CN2C(=O)c1ccccn1 | -13.49
COc1cc(C)nc(N2CCN(C(=O)COCC(F)(F)F)CC2)n1 | -7.407
Cl.Fc1ccc(CN2CCC(c3n[nH]c4ncccc34)CC2)cc1F | -14.13
O=C(CCn1ccccc1=O)Nc1ccc(F)c(Cl)c1 | -4.152
Cn1cccc1-c1cc(C(=O)N2CC(c3cccnc3)C2)[nH]n1 | -14.86
O=C1CC(c2ccc(C(=O)O)cc2)c2ncn(-c3ccccc3)c2N1 (stereo unspecified) | 2.412
CC(C)CN1CCC2(C=C(C(=O)NC3CC3)c3ccccc32)CC1.O=C(O)C(F)(F)F | 3.59
COc1ccc2c(c1)CN(Cc1nc3ccsc3c(=O)[nH]1)CC2 | 7.812
COc1cc2nc3n(c(=O)c2cc1OC)CCN(C(C)=O)CC3 | -14.34
[H][C@@]12NCCCC[C@]1([H])N(C(=O)c1ccc(OC)cc1)C[C@H]2c1ccccc1 | 1.652
COc1ccc(OCCN(C)C(=O)NC(C)c2nncn2C)cc1 (stereo unspecified) | -9.804
COc1ccccc1Cc1nnc(SCCS(C)(=O)=O)o1 | 4.386
O=C(c1cc(C2CC2)[nH]n1)N1CCN(c2nccs2)CC1 | -8.229
NC(=O)c1c(SCCN2CCOCC2)sc2c(O)cc(=O)[nH]c12 | -1.59 & -14.93
CSc1cc2c(cc1NC(=O)NCC(C)(C)C(N)=O)OCCO2 | 16.91 & 13.51 & 3.666
CCOC(=O)Cn1cnc2nc3n(c2c1=O)CCC3 | -3.7
COc1ccccc1CNC(=O)N1CCCC(NS(C)(=O)=O)C1 (stereo unspecified) | -2.312
O=C(O)C(F)(F)F.O=C(c1c[nH]cn1)N1CCOCC2(C1)CN(c1ccccc1)C(=O)CO2 (stereo unspecified) | -21.33 & 8.263 & -16.02
CCS(=O)(=O)N1CCC(c2nnc(CN3CCCCC3)n2C)CC1 | -4.379

4 of the entries, repeated:

structure	Percent Effect
Cc1cnn(CCNCC(O)COc2ccc(C#N)cc2)c1 (stereo unspecified)	12.42
COC[C@H]1CCC[C@]12CN(CCc1ccccc1)CCO2.O=C(O)C(F)(F)F	4.605
CCS(=O)(=O)N1CCC(c2nnc(CN3CCCCC3)n2C)CC1	-4.379
O=C(c1cc(C2CC2)[nH]n1)N1CCN(c2nccs2)CC1	-8.229

Measurements from “University of Dundee, Small-Polar-MMV Screening Library” (2021), ChEMBL document CHEMBL3988442.